This is one part of the list.

The test concerns the target T1, OsSMF1 (Oryza sativa, UniProt Q6ZLB0 1-436).
T1 sequence: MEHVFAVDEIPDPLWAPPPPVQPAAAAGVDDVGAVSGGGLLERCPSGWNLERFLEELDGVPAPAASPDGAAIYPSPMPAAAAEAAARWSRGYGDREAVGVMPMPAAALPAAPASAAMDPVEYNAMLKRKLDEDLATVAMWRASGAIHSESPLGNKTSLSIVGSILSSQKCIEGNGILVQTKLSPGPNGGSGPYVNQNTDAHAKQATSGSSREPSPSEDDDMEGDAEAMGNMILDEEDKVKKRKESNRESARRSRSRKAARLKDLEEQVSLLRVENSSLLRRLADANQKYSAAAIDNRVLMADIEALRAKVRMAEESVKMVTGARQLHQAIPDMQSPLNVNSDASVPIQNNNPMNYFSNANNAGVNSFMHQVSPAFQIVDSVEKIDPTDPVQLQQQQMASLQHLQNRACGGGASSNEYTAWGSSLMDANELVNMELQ
The experiment in a line: protein-binding microarray (RPBM); PBS, 2% BSA, 51.3 ng/ul salmon testes DNA, 50 uM zinc acetate, 200 nM TF, 25 C, 1 h; high values mean tight binding. The conditions noted are these: protein: recombinant; tags: N-terminal polyhistidine and DsRed monomer fusion (pET32a); chain copies: 2; label: CyDye5-dUTP incorporated in the synthesized complementary strand; 3' TTTTT single-stranded linker to array surface; dsDNA, one strand shown. Put shortly:
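Per-feature fluorescence intensity (arbitrary units), read on an Axon 4000B scanner, is the binding signal. Transcription factors carrying an N-terminal polyhistidine tag and DsRed fusion were expressed in E. coli BL21-CodonPlus and purified on Ni–NTA. A custom Agilent array, made double-stranded by primer extension with Cy5-dUTP and blocked with 2% BSA, was incubated with 200 nM protein in PBS, 2% BSA, salmon testes DNA and 50 µM zinc acetate at 25 °C for 1 h and then washed.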
With “GTAAACTGAGTGTTACGATGATTCCATATCTGTCGTTTCGCGGAGTCACCTAGTGCAG”, the binding signal was 3300 fluorescence intensity (a.u.).

As for “CTAATCATCCATTAAGAGACTAAGCACCACCACTGAATCTCGGAGTCACCTAGTGCAG”, the binding signal was 3310 fluorescence intensity (a.u.).

Consider “AAGAGGGCGCGGGTGGCGGGGATGGGCGAGGGGAAGGCGGCGGAGTCACCTAGTGCAG”, for which the binding signal is 4570 fluorescence intensity (a.u.).

Consider “CTGCGTGTGATAAGATCTAAGAGAGAGGGGAGGAAGAGAACGGAGTCACCTAGTGCAG”, for which the binding signal is 6620 fluorescence intensity (a.u.).

For “CCAAAGGAGTAGAAGATACAGCATGCGAGCAAGCAAGAGCCGGAGTCACCTAGTGCAG”, the binding signal was 17700 fluorescence intensity (a.u.).

As to “TGAGCTACCGTCCACGTTGCGGTCGTCGTCGAGCCCTTCACGGAGTCACCTAGTGCAG”, the binding signal was 3790 fluorescence intensity (a.u.).

For “TCTGGTTGATTGCTTCATTTTACTACGTCACATTTTAGTCCGGAGTCACCTAGTGCAG”, the binding signal is 4160 fluorescence intensity (a.u.).

As to “AGATTCCGACGACAGCAAAGACAGCGACGGGAGGGGAGGGCGGAGTCACCTAGTGCAG”, the binding signal is 3500 fluorescence intensity (a.u.).

As to “TACTTTGGCCAAACATAGATGGAAATTTTATAATTCGTAACGGAGTCACCTAGTGCAG”, the binding signal was 19900 fluorescence intensity (a.u.).

As to “CCAGACGAATTCCGAAGCTTCCGGATACTGACGCTCCGAACGGAGTCACCTAGTGCAG”, the binding signal was 20500 fluorescence intensity (a.u.).

Consider “ATCTCCATCGCTGGCGACGGCGAGCATCGCATCGCATCGCCGGAGTCACCTAGTGCAG”, for which the binding signal was 3150 fluorescence intensity (a.u.).

Turning to “GCCGCCGACCGCCACATATCCACACACCTCGACACGACGGCGGAGTCACCTAGTGCAG”, the binding signal is 3200 fluorescence intensity (a.u.).

Take “GCGCCACGTGGGCGACGCCGCCGTCGTGTCCTTCATACAGCGGAGTCACCTAGTGCAG”: the binding signal is 14400 fluorescence intensity (a.u.).

With “CCTTCTCTCCACTTCCTTCGTGTTCGGCGTCATGTCCGACCGGAGTCACCTAGTGCAG”, the binding signal was 3730 fluorescence intensity (a.u.).

Turning to “TAATAATAAATGATGGGGCCCACGTGGACACCACCTATCACGGAGTCACCTAGTGCAG”, the binding signal is 10600 fluorescence intensity (a.u.).

Take “CTATAAACTTAGTTAAACTAAAGCTGCTATTTAACTTTGACGGAGTCACCTAGTGCAG”: the binding signal is 3280 fluorescence intensity (a.u.).

Turning to “TGCGCTGCAGGGAGATGTGCACACTGTAGCAGCGTCGTGCCGGAGTCACCTAGTGCAG”, the binding signal is 30400 fluorescence intensity (a.u.).

For the sequence “AGTCATTTACTTTAACCTCCACCAGTCACCGGCCCAGCCACGGAGTCACCTAGTGCAG”, the binding signal was 3240 fluorescence intensity (a.u.).

For the sequence “GTAATTCGAAACCATGTCATTATAATTTTGCAAAGTTTGACGGAGTCACCTAGTGCAG”, the binding signal was 4350 fluorescence intensity (a.u.).

With “GAGAGAATCCGCTGTGTGTCACTGAATTTATTCATATTCTCGGAGTCACCTAGTGCAG”, the binding signal was 3540 fluorescence intensity (a.u.).

Consider “TCAATGAATACAAACAGTGACGGAGGCAAAATCCTAGGCGCGGAGTCACCTAGTGCAG”, for which the binding signal was 3890 fluorescence intensity (a.u.).

For “GTATATTGGTCTGATTCTGTTGCAGAGGATGCCACCTGGGCGGAGTCACCTAGTGCAG”, the binding signal is 4800 fluorescence intensity (a.u.).

On to “CACATCTGAGCCGTCCATCTGTCACCCCAGCTAAGCGAACCGGAGTCACCTAGTGCAG”, for which the binding signal was 4020 fluorescence intensity (a.u.).

As to “CTCGATTAGCTGTCAACGCTGTTTGGGCCGGCGAGCTCCACGGAGTCACCTAGTGCAG”, the binding signal is 4770 fluorescence intensity (a.u.).

Turning to “TTCTTGGCCGGAAGACACGCCGGCGCGACGGCATCATCCACGGAGTCACCTAGTGCAG”, the binding signal is 23300 fluorescence intensity (a.u.).

For “ACGATTAATTGTTTAGTAAGCGTGCTGACGTTAAACGAGACGGAGTCACCTAGTGCAG”, the binding signal was 3690 fluorescence intensity (a.u.).

Regarding “TGCGGCGTGGCGTCGCCGTGGCGCCTAGGCTGCCTTCTCCCGGAGTCACCTAGTGCAG”, the binding signal is 3470 fluorescence intensity (a.u.).

In the case of “CTTGGGGAAGGCGGCGGGTGTCGGGGAGGGCGAGGGTATCCGGAGTCACCTAGTGCAG”, the binding signal was 3400 fluorescence intensity (a.u.).

As to “AATGGTCCTCCACTGCTAAATCCAACTGTAAATCTGTCAGCGGAGTCACCTAGTGCAG”, the binding signal is 3330 fluorescence intensity (a.u.).

Consider “CCACCGGCCCGCATCACCAGAAGCCTGTCCTAAATGCACGCGGAGTCACCTAGTGCAG”, for which the binding signal is 3620 fluorescence intensity (a.u.).

With “CCTACGCCCACCTCGTCTCCGATGACGGCGGCGTCCTCGTCGGAGTCACCTAGTGCAG”, the binding signal is 3910 fluorescence intensity (a.u.).

For the sequence “GCTGAAGTGCATTTTCTCTTTTAACTGAATATACAGGTGTCGGAGTCACCTAGTGCAG”, the binding signal was 24500 fluorescence intensity (a.u.).

Take “ACATATATATGGACTTATCTTTTCTACAACAAATCTATACCGGAGTCACCTAGTGCAG”: the binding signal was 32100 fluorescence intensity (a.u.).

Take “CTGGGTGGATGGGGATCACACGTAAGTGATGCTCTGAGGACGGAGTCACCTAGTGCAG”: the binding signal is 3700 fluorescence intensity (a.u.).

Regarding “GCCAAATGCCACATTGTGGCTAATTTTGCTAAGTTGGACGCGGAGTCACCTAGTGCAG”, the binding signal was 37400 fluorescence intensity (a.u.).

As for “CAGTTACGACTAGTCGTAAATACGTCATTCATTAACTGTTCGGAGTCACCTAGTGCAG”, the binding signal was 3210 fluorescence intensity (a.u.).

For “CAATGAACAAATTGTTCGCTTGTACATGTGTTTGATTTTGCGGAGTCACCTAGTGCAG”, the binding signal was 3510 fluorescence intensity (a.u.).

Consider “GTCTCCATTGCTGACATGGCACACTAATTAGGGAGATAATCGGAGTCACCTAGTGCAG”, for which the binding signal was 6860 fluorescence intensity (a.u.).

As to “TCAACTGGGAGGCAAATATCTTCATCGTGTTCGTCATTTTCGGAGTCACCTAGTGCAG”, the binding signal was 3960 fluorescence intensity (a.u.).

In the case of “GGCGGCGGGTGGAGGGACGCCCGCTGAATCCGCCACCGGTCGGAGTCACCTAGTGCAG”, the binding signal is 3170 fluorescence intensity (a.u.).

As for “GTCCTCGTCTCCACGCTACCGTTTCGCAACCACCCGCTTCCGGAGTCACCTAGTGCAG”, the binding signal was 5260 fluorescence intensity (a.u.).

In the case of “GGGTAGAGCAGAAGGAGCTTAGTAAAGAGTTCTTTTGCCGCGGAGTCACCTAGTGCAG”, the binding signal was 3360 fluorescence intensity (a.u.).

These data come from paper PMC7819943, “Rice protein-binding microarrays: a tool to detect cis-acting elements near promoter regions in rice”.
